Tests used:
[1] = U-boat pH and salt diffusion test through oil-impregnated membrane; format: physicochemical; conditions: pH 3 in control chamber
[2] = transwell test of cortisol partitioning through oil-soaked track-etch membranes, ELISA; format: physicochemical; conditions: 10 μM cortisol in bottom well, 2 hours, room temperature

| Compound | pH change of monitored solution ([1]; after 10 hours) | cortisol concentration in upper well relative to tetradecane membrane [2] | pH change of monitored solution ([1]; within 8 hours) | rank by ELISA cortisol concentration in upper well [2] |
| --- | --- | --- | --- | --- |
| CCCCCCCCCCO [1-Decanol] | fails to maintain the pH within two units | more than 5 × |  |  |
| CCCCCCCCCCCCCC [Tetradecane] |  |  | within one unit | second-ranking |

Reference: patent publication US20230358737A1, “CONTINUOUSLY CHEMICALLY ENHANCED APTAMER SENSORS” (University of Cincinnati, priority 2020, published 2023)
